Details in all cases: 24 h
The test system of test [1] is Human fetal astrocytes. Description: loss of total cells relative to no-compound high-control median (toxicity); higher = more toxic (fewer cells).
For test [2], the system named is Human fetal astrocytes. Put plainly: synaptosome phagocytosis (pHrodo/calcein intensity ratio) relative to plate median of data wells; higher = more phagocytosis.
The test system of test [3] is Human fetal astrocytes. Description: loss of total cells relative to no-compound high-control median (toxicity); higher = more toxic (fewer cells). The source holds these as a separate data set.

Where a name gives a salt, the structure may show the parent alone. Some of the results follow. Many values rest on one well or one pass, so single values are uncertain.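 Labelled rat cortical synaptosomes were engulfed by primary human fetal astrocytes. Engulfment equaled a red/green ratio, corrected for calcein live-cell signal and normalized to the plate median. Compounds were toxic when calcein dropped over 30%, and reduced phagocytosis when below 70% of the median above 5 µM.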

In the case of `COc1cc(C=C(C#N)C#N)cc(O)c1O` [Tyrphostin AG 34], the “loss of total cells” value is -17.7% with Human fetal astrocytes [1] (1.39 µM); -24.9% with Human fetal astrocytes [1] (2.78 µM); -4.5% in the test on Human fetal astrocytes [1] (5.56 µM); -27.2% in the test on Human fetal astrocytes [1] (11.11 µM); -42% in the test with Human fetal astrocytes [1] (22.22 µM). In addition, the synaptosome phagocytosis in the test on Human fetal astrocytes [2] (1.39 µM) is 74.4%; in the test with Human fetal astrocytes [2] (2.78 µM), 101%; in the test with Human fetal astrocytes [2] (5.56 µM), 103%; in the test with Human fetal astrocytes [2] (11.11 µM), 129%; in the test on Human fetal astrocytes [2] (22.22 µM), 109%.
Consider `CN1CC[C@@]2(C)c3cc(O)ccc3N(C)C12` (single isomer, unassigned; (-)) [(-)-Eseroline fumarate], for which the “loss of total cells” value with Human fetal astrocytes [1] (1.39 µM) is -21.3%; with Human fetal astrocytes [1] (2.78 µM) it was -10.3%; in the test on Human fetal astrocytes [1] (5.56 µM), -4.9%; with Human fetal astrocytes [1] (11.11 µM) it was -18.4%; in the test with Human fetal astrocytes [1] (22.22 µM), 7.2%. For the same compound, the synaptosome phagocytosis in the test on Human fetal astrocytes [2] (1.39 µM) was 105%; in the test on Human fetal astrocytes [2] (2.78 µM), 98.3%; in the test with Human fetal astrocytes [2] (5.56 µM) it was 97.4%; in the test with Human fetal astrocytes [2] (11.11 µM), 65%; with Human fetal astrocytes [2] (22.22 µM), 70.8%.
In the case of `CN1C[C@@H](NS(=O)(=O)N(C)C)C[C@@H]2c3cccc4c3c(cn4C)C[C@H]21` [Mesulergine hydrochloride], the “loss of total cells” value with Human fetal astrocytes [1] (1.39 µM) was -18.5%; with Human fetal astrocytes [1] (2.78 µM), 6.8%; with Human fetal astrocytes [1] (5.56 µM), 13.6%; in the test on Human fetal astrocytes [1] (11.11 µM), 17.1%; in the test on Human fetal astrocytes [1] (22.22 µM), 15.9%. Further, the synaptosome phagocytosis in the test on Human fetal astrocytes [2] (1.39 µM) is 131%; with Human fetal astrocytes [2] (2.78 µM) it was 110%; with Human fetal astrocytes [2] (5.56 µM), 121%; in the test with Human fetal astrocytes [2] (11.11 µM), 126%; with Human fetal astrocytes [2] (22.22 µM), 98.6%.
On to `Nc1ccncc1` [4-Aminopyridine], for which the “loss of total cells” value was 0.4% with Human fetal astrocytes [1] (1.39 µM); -10.2% with Human fetal astrocytes [1] (2.78 µM); -9.7% in the test with Human fetal astrocytes [1] (5.56 µM); -3.1% in the test with Human fetal astrocytes [1] (11.11 µM); 11.7% with Human fetal astrocytes [1] (22.22 µM). Besides, the synaptosome phagocytosis in the test with Human fetal astrocytes [2] (1.39 µM) was 140%; with Human fetal astrocytes [2] (2.78 µM) it was 110%; in the test with Human fetal astrocytes [2] (5.56 µM) it was 118%; with Human fetal astrocytes [2] (11.11 µM), 89.5%; in the test with Human fetal astrocytes [2] (22.22 µM) it was 102%.
`CN1CCC23CCCCC2C1Cc1ccc(O)cc13` [Dextrorphan D-tartrate]: the “loss of total cells” value is -9.6% in the test with Human fetal astrocytes [1] (1.39 µM); 0.9% in the test on Human fetal astrocytes [1] (2.78 µM); -7.4% with Human fetal astrocytes [1] (5.56 µM); -12.1% in the test on Human fetal astrocytes [1] (11.11 µM); -20% in the test with Human fetal astrocytes [1] (22.22 µM). Further, the synaptosome phagocytosis is 90.7% with Human fetal astrocytes [2] (1.39 µM); 131% in the test with Human fetal astrocytes [2] (2.78 µM); 70.6% in the test with Human fetal astrocytes [2] (5.56 µM); 94.9% with Human fetal astrocytes [2] (11.11 µM); 69.3% in the test with Human fetal astrocytes [2] (22.22 µM).
Turning to `CC[C@@]1(O)C[C@H](O)c2c(cc3c(c2O)C(=O)c2c(O)ccc(O)c2C3=O)[C@H]1C(=O)OC`, the “loss of total cells” value in the test with Human fetal astrocytes [3] (1.39 µM) is -15.6%; in the test with Human fetal astrocytes [3] (2.78 µM) it was 8%; in the test with Human fetal astrocytes [3] (5.56 µM) it was 40.5%; in the test on Human fetal astrocytes [3] (11.11 µM), -9%; with Human fetal astrocytes [3] (22.22 µM), 7%.
Consider `Oc1ccc2c3c1O[C@H]1c4oc5ccccc5c4C[C@@]4(O)[C@@H](C2)N(CC2CC2)CC[C@]314` [Naltriben methanesulfonate], for which the “loss of total cells” value was -13.7% in the test with Human fetal astrocytes [1] (1.39 µM); 11.3% in the test on Human fetal astrocytes [1] (2.78 µM); 5.2% in the test with Human fetal astrocytes [1] (5.56 µM); 10.5% with Human fetal astrocytes [1] (11.11 µM); 10.3% with Human fetal astrocytes [1] (22.22 µM). The synaptosome phagocytosis is 92.4% in the test on Human fetal astrocytes [2] (1.39 µM); 117% in the test with Human fetal astrocytes [2] (2.78 µM); 81.2% in the test on Human fetal astrocytes [2] (5.56 µM); 86.5% with Human fetal astrocytes [2] (11.11 µM); 102% in the test with Human fetal astrocytes [2] (22.22 µM).
For the compound `CN[C@@H]1C[C@@H](c2ccc(Cl)c(Cl)c2)c2ccccc21` [Indatraline hydrochloride], the “loss of total cells” value was -19.4% in the test with Human fetal astrocytes [1] (1.39 µM); 7.7% with Human fetal astrocytes [1] (2.78 µM); 23% in the test on Human fetal astrocytes [1] (5.56 µM); 20% in the test with Human fetal astrocytes [1] (11.11 µM); 18.7% with Human fetal astrocytes [1] (22.22 µM). In addition, the synaptosome phagocytosis is 79.5% in the test on Human fetal astrocytes [2] (1.39 µM); 131% with Human fetal astrocytes [2] (2.78 µM); 117% with Human fetal astrocytes [2] (5.56 µM); 69.2% in the test with Human fetal astrocytes [2] (11.11 µM); 70.3% with Human fetal astrocytes [2] (22.22 µM).
`C[N+]1(C)[C@@H]2C[C@@H](OC(=O)[C@H](CO)c3ccccc3)C[C@H]1[C@@H]1O[C@@H]12` [(-)-Scopolamine methyl bromide]: the “loss of total cells” value in the test on Human fetal astrocytes [1] (1.39 µM) is 10.9%; in the test on Human fetal astrocytes [1] (2.78 µM), -6.3%; with Human fetal astrocytes [1] (5.56 µM), -2.2%; in the test on Human fetal astrocytes [1] (11.11 µM) it was -0.4%; in the test with Human fetal astrocytes [1] (22.22 µM), -22.2%. In addition, the synaptosome phagocytosis in the test with Human fetal astrocytes [2] (1.39 µM) is 84.1%; in the test on Human fetal astrocytes [2] (2.78 µM), 84.3%; with Human fetal astrocytes [2] (5.56 µM), 75.8%; in the test on Human fetal astrocytes [2] (11.11 µM) it was 111%; with Human fetal astrocytes [2] (22.22 µM), 118%.
Take `C#CCN[C@H](C)Cc1ccccc1` [R-(-)-Desmethyldeprenyl hydrochloride]: the “loss of total cells” value in the test with Human fetal astrocytes [1] (1.39 µM) is 2.1%; in the test with Human fetal astrocytes [1] (2.78 µM), -19.7%; with Human fetal astrocytes [1] (5.56 µM), 6.6%; with Human fetal astrocytes [1] (11.11 µM) it was 5.8%; in the test on Human fetal astrocytes [1] (22.22 µM) it was -1.6%. Moreover, the synaptosome phagocytosis with Human fetal astrocytes [2] (1.39 µM) is 94.3%; in the test with Human fetal astrocytes [2] (2.78 µM), 96.4%; in the test with Human fetal astrocytes [2] (5.56 µM), 114%; in the test on Human fetal astrocytes [2] (11.11 µM), 96.7%; in the test on Human fetal astrocytes [2] (22.22 µM) it was 116%.
On to `CC(=O)Oc1ccc(Cl)c2cccnc12`, for which the “loss of total cells” value with Human fetal astrocytes [3] (1.39 µM) was -9.8%; in the test with Human fetal astrocytes [3] (2.78 µM) it was 3.2%; in the test on Human fetal astrocytes [3] (5.56 µM), 29.3%; in the test with Human fetal astrocytes [3] (11.11 µM) it was 43.9%; in the test on Human fetal astrocytes [3] (22.22 µM) it was 53.3%.
In the case of `C[N+]1(C)CCN(c2ccccc2)CC1` [1,1-Dimethyl-4-phenyl-piperazinium iodide], the “loss of total cells” value in the test with Human fetal astrocytes [1] (22.22 µM) is 4.8%. Also, the synaptosome phagocytosis with Human fetal astrocytes [2] (22.22 µM) is 90.6%.
